Reference: the supplement of paper PMC10849652
Some of the results follow.

Amino acid sequences for entries named in this document (tags omitted). A change or cut given only in a name is not applied to a line headed by its entry.
UniProt Q9Y6M0: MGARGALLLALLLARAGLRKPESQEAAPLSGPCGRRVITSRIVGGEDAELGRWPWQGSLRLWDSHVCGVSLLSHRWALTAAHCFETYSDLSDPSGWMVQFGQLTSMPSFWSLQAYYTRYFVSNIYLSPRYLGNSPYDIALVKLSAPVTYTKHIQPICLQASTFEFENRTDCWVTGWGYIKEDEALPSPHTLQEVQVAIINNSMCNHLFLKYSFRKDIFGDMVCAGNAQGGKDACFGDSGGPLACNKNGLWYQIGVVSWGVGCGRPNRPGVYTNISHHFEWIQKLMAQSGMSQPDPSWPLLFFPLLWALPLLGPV
UniProt P49720: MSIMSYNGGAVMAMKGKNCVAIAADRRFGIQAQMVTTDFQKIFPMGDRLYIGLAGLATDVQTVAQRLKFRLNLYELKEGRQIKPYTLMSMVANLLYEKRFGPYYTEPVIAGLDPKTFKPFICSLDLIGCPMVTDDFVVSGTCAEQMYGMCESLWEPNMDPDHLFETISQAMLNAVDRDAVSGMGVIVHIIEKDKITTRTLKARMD
UniProt Q15257: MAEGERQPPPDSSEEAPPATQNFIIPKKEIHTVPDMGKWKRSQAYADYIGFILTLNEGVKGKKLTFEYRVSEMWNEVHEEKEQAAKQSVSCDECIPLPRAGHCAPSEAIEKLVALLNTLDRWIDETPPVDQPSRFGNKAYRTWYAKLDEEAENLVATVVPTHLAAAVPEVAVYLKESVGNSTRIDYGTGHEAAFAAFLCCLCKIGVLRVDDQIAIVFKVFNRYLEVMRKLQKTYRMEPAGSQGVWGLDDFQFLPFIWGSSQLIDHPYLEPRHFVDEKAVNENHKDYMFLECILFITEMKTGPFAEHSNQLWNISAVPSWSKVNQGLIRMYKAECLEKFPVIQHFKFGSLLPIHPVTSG
UniProt Q9UNM6: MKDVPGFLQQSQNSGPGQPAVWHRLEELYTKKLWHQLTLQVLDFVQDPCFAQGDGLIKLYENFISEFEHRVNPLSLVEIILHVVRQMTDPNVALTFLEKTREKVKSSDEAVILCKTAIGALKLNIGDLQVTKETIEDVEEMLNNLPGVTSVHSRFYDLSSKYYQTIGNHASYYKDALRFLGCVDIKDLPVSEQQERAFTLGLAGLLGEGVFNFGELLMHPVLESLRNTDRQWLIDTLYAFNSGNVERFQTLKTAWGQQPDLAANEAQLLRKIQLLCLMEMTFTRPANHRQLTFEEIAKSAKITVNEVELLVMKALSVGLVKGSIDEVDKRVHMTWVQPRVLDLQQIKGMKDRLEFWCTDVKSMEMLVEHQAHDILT
UniProt Q05397, whole entry, looked up: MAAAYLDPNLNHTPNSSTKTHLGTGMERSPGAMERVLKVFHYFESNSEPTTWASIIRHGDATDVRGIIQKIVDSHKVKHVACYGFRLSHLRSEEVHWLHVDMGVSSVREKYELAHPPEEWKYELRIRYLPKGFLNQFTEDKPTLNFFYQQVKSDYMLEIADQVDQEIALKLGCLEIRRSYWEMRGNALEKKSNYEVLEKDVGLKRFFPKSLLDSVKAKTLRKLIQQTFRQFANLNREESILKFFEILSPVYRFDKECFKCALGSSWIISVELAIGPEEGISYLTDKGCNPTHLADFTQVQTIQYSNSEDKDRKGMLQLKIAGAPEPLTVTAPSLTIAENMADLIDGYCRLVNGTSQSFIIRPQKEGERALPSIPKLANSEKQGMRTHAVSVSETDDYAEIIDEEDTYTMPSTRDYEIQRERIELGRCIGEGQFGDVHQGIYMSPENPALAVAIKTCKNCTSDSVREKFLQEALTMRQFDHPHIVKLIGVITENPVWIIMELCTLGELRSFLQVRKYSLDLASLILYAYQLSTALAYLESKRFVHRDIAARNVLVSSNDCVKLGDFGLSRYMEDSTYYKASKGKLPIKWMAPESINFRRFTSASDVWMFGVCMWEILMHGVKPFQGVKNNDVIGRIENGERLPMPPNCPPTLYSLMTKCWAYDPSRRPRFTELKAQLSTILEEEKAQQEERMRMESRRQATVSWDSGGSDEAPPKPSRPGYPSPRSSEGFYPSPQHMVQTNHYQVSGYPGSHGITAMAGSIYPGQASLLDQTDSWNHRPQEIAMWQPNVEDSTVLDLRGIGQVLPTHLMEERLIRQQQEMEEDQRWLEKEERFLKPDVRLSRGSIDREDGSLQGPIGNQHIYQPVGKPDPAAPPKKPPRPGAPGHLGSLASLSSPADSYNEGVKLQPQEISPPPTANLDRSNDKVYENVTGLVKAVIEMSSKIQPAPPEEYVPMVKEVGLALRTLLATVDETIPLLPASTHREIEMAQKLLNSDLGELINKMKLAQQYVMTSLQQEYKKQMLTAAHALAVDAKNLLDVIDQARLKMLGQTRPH
UniProt P61289: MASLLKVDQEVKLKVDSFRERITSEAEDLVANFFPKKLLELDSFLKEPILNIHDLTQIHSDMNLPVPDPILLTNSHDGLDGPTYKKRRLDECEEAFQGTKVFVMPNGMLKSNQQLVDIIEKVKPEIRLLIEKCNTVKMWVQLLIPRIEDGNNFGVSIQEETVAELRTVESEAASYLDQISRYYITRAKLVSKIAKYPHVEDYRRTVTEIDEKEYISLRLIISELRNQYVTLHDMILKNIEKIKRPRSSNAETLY
UniProt Q9UL46, whole entry, looked up: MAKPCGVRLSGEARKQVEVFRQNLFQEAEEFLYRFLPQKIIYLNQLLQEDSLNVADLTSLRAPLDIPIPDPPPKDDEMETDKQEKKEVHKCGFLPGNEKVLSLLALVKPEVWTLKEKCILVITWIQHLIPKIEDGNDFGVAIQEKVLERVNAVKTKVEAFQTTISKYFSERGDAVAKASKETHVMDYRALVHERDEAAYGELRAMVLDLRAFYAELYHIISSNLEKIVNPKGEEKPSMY
UniProt P41219, whole entry, looked up: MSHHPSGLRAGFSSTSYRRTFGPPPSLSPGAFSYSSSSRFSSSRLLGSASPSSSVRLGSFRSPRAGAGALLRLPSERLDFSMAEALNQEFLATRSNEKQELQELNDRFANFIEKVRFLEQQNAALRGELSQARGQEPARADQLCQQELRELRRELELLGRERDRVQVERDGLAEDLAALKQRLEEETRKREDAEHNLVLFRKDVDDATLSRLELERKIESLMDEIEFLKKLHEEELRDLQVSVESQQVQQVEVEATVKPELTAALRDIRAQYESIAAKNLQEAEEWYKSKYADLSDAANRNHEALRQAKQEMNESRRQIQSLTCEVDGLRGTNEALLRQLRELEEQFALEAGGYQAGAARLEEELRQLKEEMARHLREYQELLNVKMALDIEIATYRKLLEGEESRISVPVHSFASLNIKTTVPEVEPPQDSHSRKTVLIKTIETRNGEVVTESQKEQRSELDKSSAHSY
UniProt P20962: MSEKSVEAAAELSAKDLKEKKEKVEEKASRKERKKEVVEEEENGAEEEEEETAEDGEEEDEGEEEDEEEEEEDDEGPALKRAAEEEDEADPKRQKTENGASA
UniProt O00487, whole entry, looked up: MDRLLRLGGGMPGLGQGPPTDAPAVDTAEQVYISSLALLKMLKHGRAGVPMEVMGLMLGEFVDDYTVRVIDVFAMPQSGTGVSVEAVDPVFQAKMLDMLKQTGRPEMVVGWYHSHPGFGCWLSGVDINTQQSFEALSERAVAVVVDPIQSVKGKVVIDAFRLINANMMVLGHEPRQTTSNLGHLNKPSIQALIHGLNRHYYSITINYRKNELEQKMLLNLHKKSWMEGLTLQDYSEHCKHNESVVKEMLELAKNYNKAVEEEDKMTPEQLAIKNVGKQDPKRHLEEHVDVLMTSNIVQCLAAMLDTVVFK
UniProt P40306: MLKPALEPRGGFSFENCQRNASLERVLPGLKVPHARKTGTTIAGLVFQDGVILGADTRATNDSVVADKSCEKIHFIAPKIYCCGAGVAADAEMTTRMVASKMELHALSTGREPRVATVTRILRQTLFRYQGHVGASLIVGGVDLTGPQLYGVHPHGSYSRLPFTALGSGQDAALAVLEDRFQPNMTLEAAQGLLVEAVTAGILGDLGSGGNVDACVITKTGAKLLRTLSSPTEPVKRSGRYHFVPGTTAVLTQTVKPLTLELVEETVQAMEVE
UniProt P35236: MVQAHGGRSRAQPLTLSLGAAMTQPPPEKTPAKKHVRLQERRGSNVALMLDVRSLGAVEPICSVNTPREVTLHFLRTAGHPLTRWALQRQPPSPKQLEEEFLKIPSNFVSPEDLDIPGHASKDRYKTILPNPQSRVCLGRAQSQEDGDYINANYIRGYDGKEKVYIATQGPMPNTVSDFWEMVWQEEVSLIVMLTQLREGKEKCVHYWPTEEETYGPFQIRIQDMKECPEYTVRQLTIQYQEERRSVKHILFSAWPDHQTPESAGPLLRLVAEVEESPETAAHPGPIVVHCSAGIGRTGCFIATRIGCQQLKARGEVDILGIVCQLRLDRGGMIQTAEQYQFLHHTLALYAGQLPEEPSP
UniProt P48634: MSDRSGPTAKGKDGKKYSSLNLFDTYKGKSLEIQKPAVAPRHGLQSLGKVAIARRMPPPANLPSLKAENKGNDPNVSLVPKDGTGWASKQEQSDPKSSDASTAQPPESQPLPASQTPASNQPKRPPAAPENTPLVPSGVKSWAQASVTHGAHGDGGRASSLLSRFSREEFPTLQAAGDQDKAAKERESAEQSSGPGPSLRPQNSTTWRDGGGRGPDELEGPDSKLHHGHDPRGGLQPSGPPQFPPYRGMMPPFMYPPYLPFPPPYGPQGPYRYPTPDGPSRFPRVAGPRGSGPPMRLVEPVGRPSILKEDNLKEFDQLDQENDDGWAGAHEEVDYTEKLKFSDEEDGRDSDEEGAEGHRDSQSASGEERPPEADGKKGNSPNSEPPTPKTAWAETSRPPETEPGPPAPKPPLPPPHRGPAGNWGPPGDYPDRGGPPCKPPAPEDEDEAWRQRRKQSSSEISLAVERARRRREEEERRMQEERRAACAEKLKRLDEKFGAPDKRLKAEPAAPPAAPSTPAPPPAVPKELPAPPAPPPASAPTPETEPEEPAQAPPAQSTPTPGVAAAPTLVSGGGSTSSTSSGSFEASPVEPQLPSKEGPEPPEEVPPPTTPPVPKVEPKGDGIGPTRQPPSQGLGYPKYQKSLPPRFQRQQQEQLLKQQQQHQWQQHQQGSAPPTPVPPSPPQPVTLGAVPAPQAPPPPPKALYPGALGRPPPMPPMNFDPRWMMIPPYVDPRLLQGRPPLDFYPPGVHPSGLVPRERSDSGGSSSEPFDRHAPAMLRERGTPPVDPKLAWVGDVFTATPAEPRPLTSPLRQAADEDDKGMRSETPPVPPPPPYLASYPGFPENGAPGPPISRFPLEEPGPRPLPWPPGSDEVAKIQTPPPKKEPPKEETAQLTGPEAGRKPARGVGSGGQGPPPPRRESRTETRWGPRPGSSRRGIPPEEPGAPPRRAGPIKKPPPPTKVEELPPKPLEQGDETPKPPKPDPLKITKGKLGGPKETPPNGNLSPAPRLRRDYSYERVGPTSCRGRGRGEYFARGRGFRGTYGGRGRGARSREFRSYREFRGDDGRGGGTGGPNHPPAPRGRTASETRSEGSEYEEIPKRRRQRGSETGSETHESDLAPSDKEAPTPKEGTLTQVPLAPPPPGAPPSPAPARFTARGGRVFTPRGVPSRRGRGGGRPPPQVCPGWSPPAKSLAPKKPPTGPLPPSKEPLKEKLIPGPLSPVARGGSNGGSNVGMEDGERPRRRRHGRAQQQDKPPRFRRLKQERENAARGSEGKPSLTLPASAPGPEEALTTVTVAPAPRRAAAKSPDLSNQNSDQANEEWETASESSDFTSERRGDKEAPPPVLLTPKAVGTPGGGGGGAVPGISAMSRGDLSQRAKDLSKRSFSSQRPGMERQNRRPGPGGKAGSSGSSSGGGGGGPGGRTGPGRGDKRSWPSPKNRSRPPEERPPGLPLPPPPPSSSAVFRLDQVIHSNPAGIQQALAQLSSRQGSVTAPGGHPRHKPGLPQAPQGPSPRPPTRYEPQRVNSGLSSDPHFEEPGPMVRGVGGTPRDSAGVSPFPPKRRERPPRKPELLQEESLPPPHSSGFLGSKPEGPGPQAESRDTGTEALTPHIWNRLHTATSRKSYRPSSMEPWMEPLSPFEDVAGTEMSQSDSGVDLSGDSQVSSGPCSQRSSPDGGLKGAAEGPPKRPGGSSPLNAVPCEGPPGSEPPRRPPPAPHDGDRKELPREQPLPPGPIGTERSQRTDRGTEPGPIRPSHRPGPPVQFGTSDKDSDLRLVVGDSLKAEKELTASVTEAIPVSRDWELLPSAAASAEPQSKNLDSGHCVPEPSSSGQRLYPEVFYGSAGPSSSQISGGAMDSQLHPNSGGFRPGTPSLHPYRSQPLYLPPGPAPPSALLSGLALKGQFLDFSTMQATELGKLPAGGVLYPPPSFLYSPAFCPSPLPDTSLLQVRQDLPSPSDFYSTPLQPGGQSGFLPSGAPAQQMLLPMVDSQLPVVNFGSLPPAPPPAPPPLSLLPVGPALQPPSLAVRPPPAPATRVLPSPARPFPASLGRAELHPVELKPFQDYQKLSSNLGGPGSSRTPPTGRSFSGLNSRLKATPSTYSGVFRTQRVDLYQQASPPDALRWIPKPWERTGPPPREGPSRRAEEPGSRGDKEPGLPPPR

Each target was assayed with CNC(=O)c1ccc(Nc2ncc(C(F)(F)F)c(NCc3nccnc3N(C)S(C)(=O)=O)n2)cc1 [defactinib] (assay: log2 fold change, soluble protein after heating vs DMSO (PISA); higher = thermal stabilisation; K562 lysate, 10 uM; active = over 0.2 and 3.5 SD of the protein, either way, in both replicates (recomputed)).
In short: (§1)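 Soluble protein was defined as the supernatant remaining after 21,000xg for 90 min, following pooling of heated aliquots and adjustment to 0.5% NP-40 at 4°C. Before that, crude K562 extract at 1 mg/mL protein in PBS pH 7.4 with 1 mM MgCl2 was treated with 10 μM compound for 30 min and heated for 3 min across 48°C-58°C. Quantification used TMTpro 16plex LC-MS/MS with channel sums equalised, and values are log-two fold changes in thermal stability relative to solvent controls from duplicates.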

Row | Target | log2 fold change
1 | PTRH1 (UniProt Q86Y79) | inactive: -0.302
2 | PRSS21 (UniProt Q9Y6M0) | inactive: 0.039
3 | PSMB3 (UniProt P49720) | inactive: 0.018
4 | PTPA isoform 2 (UniProt Q15257) | inactive: -0.013
5 | PSMD13 (UniProt Q9UNM6) | inactive: 0.032
6 | PSMF1 (UniProt Q5QPM7) | inactive: -0.002
7 | PTPRF (UniProt P10586) | inactive: 0.154
8 | PTK2 (UniProt Q05397) | active: 0.518
9 | PSME3 isoform 2 (UniProt P61289) | inactive: -0.029
10 | PSME2 (UniProt Q9UL46) | inactive: -0.027
11 | PUM2 (UniProt Q8TB72) | inactive: 0.054
12 | PSMB2, A0A087WVV1 | inactive: -0.176
13 | PRPH isoform 2 (UniProt P41219) | inactive: -0.081
14 | PTMS (UniProt P20962) | inactive: -0.011
15 | PTBP3 isoform 4 (UniProt O95758) | inactive: 0.004
16 | PTCD3 (UniProt Q96EY7) | inactive: 0.071
17 | PRR4 (UniProt Q16378) | inactive: 0.08
18 | PSMD4 (UniProt Q5VWC4) | inactive: -0.1
19 | PRR14L (UniProt Q5THK1) | inactive: -0.068
20 | PUF60 isoform 2 (UniProt Q9UHX1) | inactive: 0.108
21 | PSMD14 (UniProt O00487) | inactive: 0.001
22 | PTOV1 (UniProt Q86YD1) | inactive: -0.053
23 | PTPRJ (UniProt Q12913) | inactive: 0.228
24 | PSMB10 (UniProt P40306) | inactive: -0.082
25 | PTPN7 isoform 3 (UniProt P35236) | inactive: 0.017
26 | PRRC2A (UniProt P48634) | inactive: 0.046

What follows are targets tested with CNc1nc(-c2ccc3c(N)n[nH]c3c2)cc(N2C[C@@H](C(=O)NC3CCCCC3)CC[C@H]2C)n1 in the same assay as above.
In short: as §1

Row | Target | log2 fold change
27 | PRSS21 (UniProt Q9Y6M0) | inactive: 0.038
28 | PSMB3 (UniProt P49720) | inactive: 0.003
29 | PTPA isoform 2 (UniProt Q15257) | inactive: -0.059
30 | PSMD13 (UniProt Q9UNM6) | inactive: -0.038
31 | PTEN isoform 2 (UniProt P60484) | inactive: -0.038
32 | PRSS8 (UniProt Q16651) | inactive: -0.027
33 | PTK2 (UniProt Q05397) | inactive: -0.055
34 | PSME3 isoform 2 (UniProt P61289) | inactive: -0.052
35 | PSME2 (UniProt Q9UL46) | inactive: -0.032
36 | PUM2 (UniProt Q8TB72) | inactive: 0.065
37 | PRXL2A (UniProt Q9BRX8) | inactive: 0.177
38 | PRPH isoform 2 (UniProt P41219) | inactive: -0.133
39 | PTMS (UniProt P20962) | inactive: 0.012
40 | PTBP3 isoform 4 (UniProt O95758) | inactive: 0.048
41 | PTCD3 (UniProt Q96EY7) | inactive: 0.005
42 | PRR14L (UniProt Q5THK1) | inactive: 0.07
43 | PSMD14 (UniProt O00487) | inactive: -0.013
44 | PRSS50 (UniProt Q9UI38) | inactive: -0.01
45 | PTOV1 (UniProt Q86YD1) | inactive: 0.136
46 | PSMB10 (UniProt P40306) | inactive: -0.002
47 | PWWP2B (UniProt Q6NUJ5) | inactive: -0.025
48 | PSMB8 (UniProt P28062) | inactive: 0.094
49 | PSEN2 (UniProt P49810) | inactive: -0.002
50 | PTPN7 isoform 3 (UniProt P35236) | inactive: 0.038
51 | PRRC2A (UniProt P48634) | inactive: -0.012

The targets below were run with COC(=O)N[C@@H](C)CNc1nccc(-c2cn(C(C)C)nc2-c2cc(Cl)cc(NS(C)(=O)=O)c2F)n1 [encorafenib] in the same assay as above.
In short: as §1

Row | Target | log2 fold change
52 | PTRH1 (UniProt Q86Y79) | inactive: -0.026
53 | PRSS21 (UniProt Q9Y6M0) | inactive: 0.032
54 | PSMB3 (UniProt P49720) | inactive: 0.003
55 | PTPA isoform 2 (UniProt Q15257) | inactive: -0.014
56 | PSMD13 (UniProt Q9UNM6) | inactive: -0.004
57 | PSMF1 (UniProt Q5QPM7) | inactive: -0.207
58 | PTEN isoform 2 (UniProt P60484) | inactive: 0.016
59 | PTK2 (UniProt Q05397) | inactive: -0.057
60 | PSME3 isoform 2 (UniProt P61289) | inactive: 0.014
61 | PSME2 (UniProt Q9UL46) | inactive: 0
62 | PUM2 (UniProt Q8TB72) | inactive: 0.062
63 | PSMB2, A0A087WVV1 | inactive: -0.033
64 | PRPH isoform 2 (UniProt P41219) | inactive: -0.023
65 | PTMS (UniProt P20962) | inactive: -0.037
66 | PTBP3 isoform 4 (UniProt O95758) | inactive: -0.001
67 | PTCD3 (UniProt Q96EY7) | inactive: 0.046
68 | PRR4 (UniProt Q16378) | inactive: -0.396
69 | PRR14L (UniProt Q5THK1) | inactive: 0.022
70 | PUF60 isoform 2 (UniProt Q9UHX1) | inactive: 0.039
71 | PSMD14 (UniProt O00487) | inactive: -0.013
72 | PRSS50 (UniProt Q9UI38) | inactive: 0.087
73 | PTPRJ (UniProt Q12913) | inactive: 0.057
74 | PSMB10 (UniProt P40306) | inactive: 0.023
75 | PSMB8 (UniProt P28062) | inactive: 0.041
76 | PSEN2 (UniProt P49810) | inactive: 0.121
77 | PTPN7 isoform 3 (UniProt P35236) | inactive: -0.051
78 | PRRC2A (UniProt P48634) | inactive: 0.048
